Assay: Volume of aqueous solution needed to dissolve clinically relevant dose
Type: physicochemical

## CN1C(=O)CN=C(c2ccccc2)c2cc(Cl)ccc21 [diazepam]
  volume of aqueous solution to dissolve clinically relevant dose: about 5000 ml
